# In patent US20080057136A1, “Disinfecting Composition and Methods of Making and Using Same” (priority 2003, published 2008):
# Columns and labels:
# [1] = system: S. epidermidis ATCC 12228; assay: NCCLS broth microdilution MIC and MBC (Example 10); format: cell-based, Staphylococcus epidermidis
# P. aeruginosa ATCC 15442 = assay: NCCLS broth microdilution MIC and MBC (Example 10); format: cell-based, Pseudomonas aeruginosa
# E. coli ATCC 11229 = assay: NCCLS broth microdilution MIC and MBC (Example 10); format: cell-based, Escherichia coli
# S. pyogenes ATCC 19615 = assay: NCCLS broth microdilution MIC and MBC (Example 10); format: cell-based, Streptococcus pyogenes
# C. albicans ATCC 10231 [2] = assay: NCCLS broth microdilution MIC and MFC (Example 11); format: cell-based; conditions: Candida albicans, ATCC10231
# S. aureus ATCC 25923 = assay: NCCLS broth microdilution MIC and MBC (Example 10); format: cell-based, Staphylococcus aureus
# T. rubrum ATCC 28188 [3] = assay: NCCLS broth microdilution MIC and MFC (Example 10); format: cell-based; conditions: Trichophyton rubrum, ATCC28188
# C. albicans ATCC 10231 [4] = assay: NCCLS broth microdilution MIC and MFC (Example 10); format: cell-based; conditions: Candida albicans, ATCC10231
# [5] = system: Candida albicans (ATCC 10231); assay: Time-Kill test (Example 9); format: cell-based; conditions: Table 25, second value column
# T. rubrum ATCC 28188 [6] = assay: NCCLS broth microdilution MIC and MFC (Example 11); format: cell-based; conditions: Trichophyton rubrum, ATCC28188
# [7] = Example 10, % as g/100 ml or ml/100 ml
compound,measurement,setting,value
"CCCCCCCCCCCCCCCC[n+]1ccccc1 [CPC, Cetyl Pyridinium Chloride]",MIC (μg/ml),[1]; Example 10,(<=7) μg/ml
same,"MIC, %",[1]; [7],<=0.0007%
same,MIC,"[1]; Staphylococcus epidermidis, ATCC12228",≤ 7 µg/mL
same,MIC (μg/ml),P. aeruginosa ATCC 15442; Example 10,(200) μg/ml
same,"MIC, %",P. aeruginosa ATCC 15442; [7],0.02%
same,MIC,"P. aeruginosa ATCC 15442; Pseudomonas aeruginosa, ATCC15442",200 µg/mL
same,MIC,"E. coli ATCC 11229; Escherichia coli, ATCC11229",50 µg/mL
same,MIC (μg/ml),E. coli ATCC 11229; Example 10,(50) μg/ml
same,"MIC, %",E. coli ATCC 11229; [7],0.005%
same,MIC (μg/ml),S. pyogenes ATCC 19615; Example 10,(<=7) μg/ml
same,"MIC, %",S. pyogenes ATCC 19615; [7],<=0.0007%
same,MIC,"S. pyogenes ATCC 19615; Streptococcus pyogenes, ATCC19615",≤ 7 µg/mL
same,MFC,C. albicans ATCC 10231 [2],≤ 7 µg/mL
same,MIC,C. albicans ATCC 10231 [2],≤ 7 µg/mL
same,MIC (μg/ml),S. aureus ATCC 25923; Example 10,(<=7) μg/ml
same,"MIC, %",S. aureus ATCC 25923; [7],<=0.0007%
same,MIC,"S. aureus ATCC 25923; Staphylococcus aureus, ATCC25923",≤ 7 µg/mL
same,MIC,T. rubrum ATCC 28188 [3],≤ 7 µg/mL
same,MIC,C. albicans ATCC 10231 [4],≤ 7 µg/mL
same,"Kill, 30-Second",[5],100%
same,MIC,T. rubrum ATCC 28188 [6],≤ 7 µg/mL
